These results are taken from paper PMC10946153.

Chains of the proteins cited; added tags and fusions are not shown.
UniProt Q9BXK5: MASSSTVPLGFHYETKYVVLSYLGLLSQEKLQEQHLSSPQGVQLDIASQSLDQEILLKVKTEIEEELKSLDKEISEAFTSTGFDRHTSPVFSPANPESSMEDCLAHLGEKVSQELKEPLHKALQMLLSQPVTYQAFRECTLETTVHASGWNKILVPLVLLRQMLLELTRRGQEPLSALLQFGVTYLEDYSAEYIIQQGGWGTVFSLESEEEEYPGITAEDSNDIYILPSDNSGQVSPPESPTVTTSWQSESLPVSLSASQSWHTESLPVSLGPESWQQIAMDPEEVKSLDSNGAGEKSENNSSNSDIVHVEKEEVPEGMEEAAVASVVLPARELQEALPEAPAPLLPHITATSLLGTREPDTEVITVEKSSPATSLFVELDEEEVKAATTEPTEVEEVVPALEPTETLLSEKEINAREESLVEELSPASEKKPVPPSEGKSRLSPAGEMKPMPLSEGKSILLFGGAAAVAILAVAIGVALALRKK

The experiment addresses T1, Yeast mitochondrial escape 1-like 1 (YME1L) (human (endogenous in HK2)) (UniProt Q96TA2).
T1 sequence: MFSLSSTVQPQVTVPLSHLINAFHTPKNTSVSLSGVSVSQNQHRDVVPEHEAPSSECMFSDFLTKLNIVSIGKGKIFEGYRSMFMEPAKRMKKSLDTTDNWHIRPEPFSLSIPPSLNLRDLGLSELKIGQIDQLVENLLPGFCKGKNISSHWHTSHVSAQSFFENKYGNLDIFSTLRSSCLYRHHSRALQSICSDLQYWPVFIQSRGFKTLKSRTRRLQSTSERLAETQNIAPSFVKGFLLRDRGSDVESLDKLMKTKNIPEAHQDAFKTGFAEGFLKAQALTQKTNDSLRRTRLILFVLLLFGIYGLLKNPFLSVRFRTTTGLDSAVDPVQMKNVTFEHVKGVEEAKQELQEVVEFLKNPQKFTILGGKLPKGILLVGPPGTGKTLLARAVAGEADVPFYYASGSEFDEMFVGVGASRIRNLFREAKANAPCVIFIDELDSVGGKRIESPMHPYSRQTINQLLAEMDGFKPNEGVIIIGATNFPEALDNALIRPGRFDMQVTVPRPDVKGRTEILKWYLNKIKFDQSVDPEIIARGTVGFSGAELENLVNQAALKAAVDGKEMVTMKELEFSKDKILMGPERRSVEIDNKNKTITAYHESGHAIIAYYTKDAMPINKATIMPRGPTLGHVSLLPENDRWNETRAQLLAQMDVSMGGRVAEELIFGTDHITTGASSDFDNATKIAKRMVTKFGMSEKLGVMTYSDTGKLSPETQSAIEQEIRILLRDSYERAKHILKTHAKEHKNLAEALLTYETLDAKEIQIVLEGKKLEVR
Description: affinity purification with mass spectrometry; IP from HK2 cell lysates (NG control and HG groups) with YME1L antibody or IgG as negative control; SDS-PAGE, silver staining, in-gel digestion, LC-MS/MS.

No constants are given. Whether binding was seen depends on the method and setting. Binding seen in cells or lysates may run through a third protein. These calls come from enrichment with a bait or labelling near it, and not all partners need be listed.

With “BCL2-like 13 (BCL2L13) (from UniProt Q9BXK5 1-485)”, the binding result is given as “binds”.
